{"source": "patent US20210072244A1", "about": "“METHODS AND COMPOSITIONS FOR TREATING MELANOMA RESISTANT” (INSERM (INSTITUT NATIONAL DE LA SANTÉ ET DE LA RECHERCHE …, priority 2018, published 2021)", "test_system": "UACC62 and WM9 human melanoma cell lines (BRAFV600E)", "test": "Global metabolic profiling by UPLC-MS/MS", "assay_type": "cell-based", "description": "Briefly, samples were prepared using the automated MicroLab STAR® system (Hamilton Company). Recovery standards were added prior to the first step in the extraction process for QC purposes. Cell lysates were precipitated using methanol under vigorous shaking for 2 min, followed by centrifugation. The resulting extract was divided into five fractions: two samples for analysis using two separate reversephase (RP)/UPLC-MS/MS methods with positive ion mode electrospray ionization (ESI), one sample for analysis through RP/UPLC-MS/MS with negative ion mode ESI, one sample for analysis through HILIC/UPLC-MS/MS with negative ion mode ESI, and one sample was reserved for backup. The samples were briefly placed on a TurboVap® (Zymark) to remove the organic solvent. The sample extracts were stored overnight under nitrogen prior to preparation for analysis. Chromatography analyses were performed using Waters ACQUITY ultra-performance liquid chromatography (UPLC) and a Thermo Scientific Q-Exactive high resolution/accurate mass spectrometer interfaced with a heated electrospray ionization (HESI-II) source and Orbitrap mass analyzer operated at 35,000 mass resolution. The sample extract was dried and subsequently reconstituted in solvents compatible to each method (Miller et al. 2015). […]", "data": [{"compound": "CCCS(=O)(=O)Nc1ccc(F)c(C(=O)c2c[nH]c3ncc(-c4ccc(Cl)cc4)cc23)c1F", "note": "[PLX4032]", "values": [{"measurement": "metabolites downregulated", "value": 45}, {"measurement": "metabolites upregulated", "value": 48}]}]}
